## Primary screen of a compound library

From ChEMBL document CHEMBL3988442, “University of Dundee, Small-Polar-MMV Screening Library” (2021).

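Growth of Mycobacterium tuberculosis over 3 days (7H9 medium with glucose and tyloxapol); the read-out is not stated. Compounds at 50 µM. Higher reads as more growth inhibition (inferred: compounds with an IC50 in retests scored well above the rest). About 69,000 compounds were tested under these conditions; 1.1% (about 760) showed 50% or more at least once.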

Each number is a percent effect as filed. The record does not define 0% and 100%; most values in the screen are far below 50% and negative numbers occur (in some assays of this library far below -100). The compounds are a random part of those screened. Two or more numbers in one place are separate tests of the same structure; such repeats can differ widely.

Compound	percent effect
CS(=O)(=O)N1CCC2(COCc3cnc(-c4ccccc4)nc32)C1 (configuration not stated)	-4.612% & 5.592%
CCS(=O)(=O)N1CCOC(CCCc2ccccc2)C1 (configuration not stated)	10.66%
CCN(CC)CCn1cc(NC2CCSCC2)cn1	-18.28%
CC(C)c1nccn1C1CCCN(C(=O)c2cnn(C)c2C2CC2)C1 (configuration not stated)	-18.72%
O=C(NCCc1nnc[nH]1)Nc1cccc(SC(F)F)c1	3.146% & 3.933%
CCc1cc(C(=O)N2CCC(C3CCN(c4ncccn4)CC3)C2)on1 (configuration not stated)	11.66%
O=c1n(CC2CCCCO2)nc(CC2CCNCC2)n1-c1ccccc1 (configuration not stated)	9.312%
CN(Cc1nccn1C)C1CCN(CCc2ccccn2)CC1	-0.9809% & -59.42%
CC(C)OCCCN1CCCC(c2nc3ccccc3n2C(C)C)C1 (configuration not stated)	6.009%
CN(C)CCN(Cc1ccc(Cl)cc1)C(=O)c1cnccn1	-1.163% & 17.04%
Cc1cc(C)n(Cc2ccc(-c3noc(C(=O)NC[C@@H](C)O)n3)cc2)n1	12.79%
c1coc(-c2nnc(CN(Cc3cccs3)CC3CCCO3)o2)c1 (configuration not stated)	31.54%
COc1cccc(CN2CCN(C(=O)CN3CCOCC3)CC2)n1	-5.296%
CC(C)(C)CN[C@@H]1CO[C@H](CNC(=O)C2CCCC2)[C@H]1O	-9.049% & -2.625%
CC(CCNC(=O)NCCNc1cnccn1)c1ccccc1 (configuration not stated)	7.388% & 13.14%

The first 2 entries again:

* CS(=O)(=O)N1CCC2(COCc3cnc(-c4ccccc4)nc32)C1 (configuration not stated) | -4.612% & 5.592%
* CCS(=O)(=O)N1CCOC(CCCc2ccccc2)C1 (configuration not stated) | 10.66%